The text below walks through data of the supplement of paper PMC10077471.

Whole data set: some 1,900 compounds, median “excess over highest single agent (ExcessHSA) synergy score, 6x6 matrix” near -83, cut for the lowest 2% near -370. This is one part of the list.

In the assay the test system is NCI-H446. Briefly: excess over highest single agent (ExcessHSA) synergy score, 6x6 matrix; higher = less synergy (more negative = stronger synergy). Conditions: 72 h; CellTiter-Glo viability.
On to `COc1ccc(/C=C\c2cc(OC)c(OC)c(OC)c2)cc1NC(=O)[C@@H](N)CO` + Cc1sc2c(c1C)C(c1ccc(Cl)cc1)=N[C@@H](CC(=O)OC(C)(C)C)c1nnc(C)n1-2 [NCGC00250412-19], for which the “excess over highest single agent” value was -142.
Take `Clc1cc(Cl)cc(CNc2ncncc2-c2ccc3c(c2)OCO3)c1` + Cc1sc2c(c1C)C(c1ccc(Cl)cc1)=N[C@@H](CC(=O)OC(C)(C)C)c1nnc(C)n1-2 [NCGC00250412-19]: the “excess over highest single agent” value is -88.1.
Under `CC(C)C(=O)Oc1ccc(CO)cc1[C@H](CCN(C(C)C)C(C)C)c1ccccc1` + Cc1sc2c(c1C)C(c1ccc(Cl)cc1)=N[C@@H](CC(=O)OC(C)(C)C)c1nnc(C)n1-2 [NCGC00250412-19] stands -26.9; under `Cc1ccc(NC(=O)c2ccc(CN3CCN(C)CC3)cc2)cc1Nc1nccc(-c2cccnc2)n1` + Cc1sc2c(c1C)C(c1ccc(Cl)cc1)=N[C@@H](CC(=O)OC(C)(C)C)c1nnc(C)n1-2 [NCGC00250412-19], -176.
As for `CN(C)/[N+]([O-])=N/Oc1cc(ON[N+](=O)N2CCN(C(=O)c3cc(Cc4n[nH]c(=O)c5ccccc45)ccc3F)CC2)c([N+](=O)[O-])cc1[N+](=O)[O-]` + Cc1sc2c(c1C)C(c1ccc(Cl)cc1)=N[C@@H](CC(=O)OC(C)(C)C)c1nnc(C)n1-2 [NCGC00250412-19], the “excess over highest single agent” value was -94.6.
With `Cc1c(C(=O)NN2CCCCC2)nn(-c2ccc(Cl)cc2Cl)c1-c1ccc(Cl)cc1` + Cc1sc2c(c1C)C(c1ccc(Cl)cc1)=N[C@@H](CC(=O)OC(C)(C)C)c1nnc(C)n1-2 [NCGC00250412-19] the figure was -88.9.
Take `N[C@@H](CSC(c1ccccc1)(c1ccccc1)c1ccccc1)C(=O)O` + Cc1sc2c(c1C)C(c1ccc(Cl)cc1)=N[C@@H](CC(=O)OC(C)(C)C)c1nnc(C)n1-2 [NCGC00250412-19]: the “excess over highest single agent” value was -96.2.
Consider `COc1cc([C@@H]2c3cc4c(cc3[C@H](O)[C@H]3COC(=O)[C@@H]23)OCO4)cc(OC)c1OC` + Cc1sc2c(c1C)C(c1ccc(Cl)cc1)=N[C@@H](CC(=O)OC(C)(C)C)c1nnc(C)n1-2 [NCGC00250412-19], for which the “excess over highest single agent” value was 31.7.
As for `COc1cc2c(cc1OC)CC(=O)N(CCCN(C)C[C@H]1Cc3cc(OC)c(OC)cc31)CC2` + Cc1sc2c(c1C)C(c1ccc(Cl)cc1)=N[C@@H](CC(=O)OC(C)(C)C)c1nnc(C)n1-2 [NCGC00250412-19], the “excess over highest single agent” value is -41.8.
With `Clc1ccc(C(Cn2ccnc2)OCc2ccsc2Cl)c(Cl)c1` (configuration not stated) + Cc1sc2c(c1C)C(c1ccc(Cl)cc1)=N[C@@H](CC(=O)OC(C)(C)C)c1nnc(C)n1-2 [NCGC00250412-19] the figure was -4.07; with `COc1cc(C(=O)N2CCC(N3CCN(C)CC3)CC2)ccc1Nc1ncc2c(n1)N(C)c1ccccc1C(=O)N2C` + Cc1sc2c(c1C)C(c1ccc(Cl)cc1)=N[C@@H](CC(=O)OC(C)(C)C)c1nnc(C)n1-2 [NCGC00250412-19], 239.
For `C[C@](N)(Cc1ccc(O)c(O)c1)C(=O)O` + Cc1sc2c(c1C)C(c1ccc(Cl)cc1)=N[C@@H](CC(=O)OC(C)(C)C)c1nnc(C)n1-2 [NCGC00250412-19], the “excess over highest single agent” value was -50.9.
As for `COc1cc(NCc2ccc3nc(N)nc(N)c3c2C)cc(OC)c1OC` + Cc1sc2c(c1C)C(c1ccc(Cl)cc1)=N[C@@H](CC(=O)OC(C)(C)C)c1nnc(C)n1-2 [NCGC00250412-19], the “excess over highest single agent” value was -213.
With `CC(C)(OCc1nn(Cc2ccccc2)c2ccccc12)C(=O)O` + Cc1sc2c(c1C)C(c1ccc(Cl)cc1)=N[C@@H](CC(=O)OC(C)(C)C)c1nnc(C)n1-2 [NCGC00250412-19] the figure was 278.
As for `Cc1ccc(S(=O)(=O)N[C@@H](Cc2ccccc2)C(=O)CCl)cc1` + Cc1sc2c(c1C)C(c1ccc(Cl)cc1)=N[C@@H](CC(=O)OC(C)(C)C)c1nnc(C)n1-2 [NCGC00250412-19], the “excess over highest single agent” value is -221.
As for `CCn1c(C(=O)N(C2CC2)C2CC2)cc2c3c(ncn3C)c(Nc3cc(C)n(C)n3)nc21` + Cc1sc2c(c1C)C(c1ccc(Cl)cc1)=N[C@@H](CC(=O)OC(C)(C)C)c1nnc(C)n1-2 [NCGC00250412-19], the “excess over highest single agent” value worked out at 76.1.
Turning to `Cc1cccc(-c2[nH]c(C(C)(C)C)nc2-c2ccc3c(c2)OCO3)n1` + Cc1sc2c(c1C)C(c1ccc(Cl)cc1)=N[C@@H](CC(=O)OC(C)(C)C)c1nnc(C)n1-2 [NCGC00250412-19], the “excess over highest single agent” value is -84.7.
With `CC(C)(O)C(=O)Nc1ccc([N+](=O)[O-])c(C(F)(F)F)c1` + Cc1sc2c(c1C)C(c1ccc(Cl)cc1)=N[C@@H](CC(=O)OC(C)(C)C)c1nnc(C)n1-2 [NCGC00250412-19] the figure was -139; with `CN1CC(=O)N2[C@H](c3ccc4c(c3)OCO4)c3[nH]c4ccccc4c3C[C@@H]2C1=O` + Cc1sc2c(c1C)C(c1ccc(Cl)cc1)=N[C@@H](CC(=O)OC(C)(C)C)c1nnc(C)n1-2 [NCGC00250412-19], -174; with `C1CCC(C(CC2CCCCN2)C2CCCCC2)CC1` (configuration not stated) + Cc1sc2c(c1C)C(c1ccc(Cl)cc1)=N[C@@H](CC(=O)OC(C)(C)C)c1nnc(C)n1-2 [NCGC00250412-19], -213.
`C1=C2CCCN[C@H]2[C@@H]2C[C@H]1[C@H]1CCCCN1C2` + Cc1sc2c(c1C)C(c1ccc(Cl)cc1)=N[C@@H](CC(=O)OC(C)(C)C)c1nnc(C)n1-2 [NCGC00250412-19]: the “excess over highest single agent” value is -80.4.
With `CCN(C(=O)c1c(O)c2c(Cl)cccc2n(C)c1=O)c1ccccc1` + Cc1sc2c(c1C)C(c1ccc(Cl)cc1)=N[C@@H](CC(=O)OC(C)(C)C)c1nnc(C)n1-2 [NCGC00250412-19], the “excess over highest single agent” value was -129.
Regarding `CCc1nc(N)nc(N)c1-c1ccc(Cl)cc1` + Cc1sc2c(c1C)C(c1ccc(Cl)cc1)=N[C@@H](CC(=O)OC(C)(C)C)c1nnc(C)n1-2 [NCGC00250412-19], the “excess over highest single agent” value is -92.5.
As to `CC(C)NCC(O)COc1ccc(CCOCC2CC2)cc1` (configuration not stated) + Cc1sc2c(c1C)C(c1ccc(Cl)cc1)=N[C@@H](CC(=O)OC(C)(C)C)c1nnc(C)n1-2 [NCGC00250412-19], the “excess over highest single agent” value is -56.8.
Regarding `O=C(O)c1cn(C2CC2)c2cc(N3CCNCC3)c(F)cc2c1=O` + Cc1sc2c(c1C)C(c1ccc(Cl)cc1)=N[C@@H](CC(=O)OC(C)(C)C)c1nnc(C)n1-2 [NCGC00250412-19], the “excess over highest single agent” value is -31.4.
Under `COc1cc2ncn(-c3cc(OCc4ccccc4C(F)(F)F)c(C(N)=O)s3)c2cc1OC` + Cc1sc2c(c1C)C(c1ccc(Cl)cc1)=N[C@@H](CC(=O)OC(C)(C)C)c1nnc(C)n1-2 [NCGC00250412-19] stands -59.3; under `CC(C)(N)c1ccc(-c2nc3ccccc3nc2-c2ccccc2)cc1` + Cc1sc2c(c1C)C(c1ccc(Cl)cc1)=N[C@@H](CC(=O)OC(C)(C)C)c1nnc(C)n1-2 [NCGC00250412-19], -116; under `CN1c2cc(O)c(N=NC(N)=O)cc2CC1S(=O)(=O)O` (configuration not stated) + Cc1sc2c(c1C)C(c1ccc(Cl)cc1)=N[C@@H](CC(=O)OC(C)(C)C)c1nnc(C)n1-2 [NCGC00250412-19], -280.
`C1COC(NC(C2CC2)C2CC2)=N1` + Cc1sc2c(c1C)C(c1ccc(Cl)cc1)=N[C@@H](CC(=O)OC(C)(C)C)c1nnc(C)n1-2 [NCGC00250412-19]: the “excess over highest single agent” value is -171.
Take `COc1cc(OC2CCN(C)CC2)ccc1Nc1ncc2c(n1)n(C1CCCC1)c(=O)n2C` + Cc1sc2c(c1C)C(c1ccc(Cl)cc1)=N[C@@H](CC(=O)OC(C)(C)C)c1nnc(C)n1-2 [NCGC00250412-19]: the “excess over highest single agent” value is 32.4.
On to `CN1CCN(c2ncc(-c3cc(Cl)cc(Cl)c3Cl)c(N)n2)CC1` + Cc1sc2c(c1C)C(c1ccc(Cl)cc1)=N[C@@H](CC(=O)OC(C)(C)C)c1nnc(C)n1-2 [NCGC00250412-19], for which the “excess over highest single agent” value is -219.
For the compound `C#CCN[C@@H]1CCc2ccccc21` + Cc1sc2c(c1C)C(c1ccc(Cl)cc1)=N[C@@H](CC(=O)OC(C)(C)C)c1nnc(C)n1-2 [NCGC00250412-19], the “excess over highest single agent” value is 68.
Take `O=C(Nc1ccc(Oc2ccnc3[nH]ccc23)c(F)c1)c1cccn(-c2ccc(F)cc2)c1=O` + Cc1sc2c(c1C)C(c1ccc(Cl)cc1)=N[C@@H](CC(=O)OC(C)(C)C)c1nnc(C)n1-2 [NCGC00250412-19]: the “excess over highest single agent” value is -78.2.
Turning to `CN1N=C(N)c2cn([C@@H]3O[C@H](COP(=O)(O)O)[C@@H](O)[C@H]3O)c3ncnc1c23` + Cc1sc2c(c1C)C(c1ccc(Cl)cc1)=N[C@@H](CC(=O)OC(C)(C)C)c1nnc(C)n1-2 [NCGC00250412-19], the “excess over highest single agent” value is -229.
`COc1cc2c(Oc3ccc(NC(=O)C4(C(=O)Nc5ccc(F)cc5)CC4)cc3F)ccnc2cc1OCCCN1CCOCC1` + Cc1sc2c(c1C)C(c1ccc(Cl)cc1)=N[C@@H](CC(=O)OC(C)(C)C)c1nnc(C)n1-2 [NCGC00250412-19]: the “excess over highest single agent” value was -170.
With `C[S+]([O-])c1ccc(-c2nc(-c3ccc(F)cc3)c(-c3ccncc3)[nH]2)cc1` (configuration not stated) + Cc1sc2c(c1C)C(c1ccc(Cl)cc1)=N[C@@H](CC(=O)OC(C)(C)C)c1nnc(C)n1-2 [NCGC00250412-19], the “excess over highest single agent” value was 44.9.
With `CC(=O)NCCC(=O)N[C@@H](CCC(N)=O)C(=O)N[C@@H](CO)C(=O)N[C@@H](CCC(N)=O)C(=O)N[C@@H](CCC(N)=O)C(=O)N[C@H](C(=O)N[C@@H](Cc1ccccc1)C(=O)N[C@]1(C)CCCCCCC=CCCC[C@@](C)(C(=O)N[C@@H](CCC(N)=O)C(=O)N[C@@H](CC(N)=O)C(N)=O)NC(=O)[C@H](CC(C)C)NC(=O)[C@H](CC(C)C)NC(=O)[C@@H](CCCNC(=N)N)NC(=O)[C@H](Cc2c[nH]c3ccccc23)NC(=O)[C@H](CC(C)C)NC(=O)[C@H](CC(N)=O)NC1=O)[C@H](C)O` + Cc1sc2c(c1C)C(c1ccc(Cl)cc1)=N[C@@H](CC(=O)OC(C)(C)C)c1nnc(C)n1-2 [NCGC00250412-19] the figure was -32.1.
